Paper PMC9871011

Chains of the proteins cited; added tags and fusions are not shown.
UniProt P10630: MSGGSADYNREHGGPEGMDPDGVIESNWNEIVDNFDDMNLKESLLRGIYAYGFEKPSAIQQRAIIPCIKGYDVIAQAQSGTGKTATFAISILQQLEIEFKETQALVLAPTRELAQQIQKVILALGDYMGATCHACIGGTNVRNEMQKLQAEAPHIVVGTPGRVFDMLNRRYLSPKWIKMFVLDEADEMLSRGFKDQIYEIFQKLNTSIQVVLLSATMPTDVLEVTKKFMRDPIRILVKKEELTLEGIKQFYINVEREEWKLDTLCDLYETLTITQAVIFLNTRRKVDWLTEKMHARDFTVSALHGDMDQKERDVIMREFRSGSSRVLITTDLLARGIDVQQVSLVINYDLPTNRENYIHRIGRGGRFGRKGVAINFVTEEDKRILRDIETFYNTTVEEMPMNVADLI
UniProt P70372: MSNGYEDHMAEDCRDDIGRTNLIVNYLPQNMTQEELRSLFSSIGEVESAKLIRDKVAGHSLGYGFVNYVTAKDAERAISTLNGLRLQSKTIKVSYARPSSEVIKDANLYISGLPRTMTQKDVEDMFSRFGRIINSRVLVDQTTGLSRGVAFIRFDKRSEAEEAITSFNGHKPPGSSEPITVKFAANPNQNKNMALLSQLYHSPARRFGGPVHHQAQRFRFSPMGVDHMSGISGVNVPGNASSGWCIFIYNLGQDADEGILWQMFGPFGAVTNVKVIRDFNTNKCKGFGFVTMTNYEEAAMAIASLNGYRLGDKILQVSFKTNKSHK
UniProt A2AJ72: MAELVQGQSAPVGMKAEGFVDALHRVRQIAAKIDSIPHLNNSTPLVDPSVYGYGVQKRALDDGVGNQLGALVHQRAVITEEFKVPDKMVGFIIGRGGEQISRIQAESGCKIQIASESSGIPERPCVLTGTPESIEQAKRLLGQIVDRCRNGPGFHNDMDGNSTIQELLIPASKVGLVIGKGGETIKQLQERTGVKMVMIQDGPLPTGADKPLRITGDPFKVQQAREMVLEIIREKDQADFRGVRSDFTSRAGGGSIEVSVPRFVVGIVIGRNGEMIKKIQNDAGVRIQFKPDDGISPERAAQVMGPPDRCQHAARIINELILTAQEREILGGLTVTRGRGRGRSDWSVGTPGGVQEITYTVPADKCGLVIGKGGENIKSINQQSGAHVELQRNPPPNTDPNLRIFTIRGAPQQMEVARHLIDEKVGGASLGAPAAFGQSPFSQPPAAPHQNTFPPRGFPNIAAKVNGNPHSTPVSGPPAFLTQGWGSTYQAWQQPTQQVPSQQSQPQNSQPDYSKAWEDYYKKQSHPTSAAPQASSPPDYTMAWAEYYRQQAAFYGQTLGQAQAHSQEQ
UniProt P29341: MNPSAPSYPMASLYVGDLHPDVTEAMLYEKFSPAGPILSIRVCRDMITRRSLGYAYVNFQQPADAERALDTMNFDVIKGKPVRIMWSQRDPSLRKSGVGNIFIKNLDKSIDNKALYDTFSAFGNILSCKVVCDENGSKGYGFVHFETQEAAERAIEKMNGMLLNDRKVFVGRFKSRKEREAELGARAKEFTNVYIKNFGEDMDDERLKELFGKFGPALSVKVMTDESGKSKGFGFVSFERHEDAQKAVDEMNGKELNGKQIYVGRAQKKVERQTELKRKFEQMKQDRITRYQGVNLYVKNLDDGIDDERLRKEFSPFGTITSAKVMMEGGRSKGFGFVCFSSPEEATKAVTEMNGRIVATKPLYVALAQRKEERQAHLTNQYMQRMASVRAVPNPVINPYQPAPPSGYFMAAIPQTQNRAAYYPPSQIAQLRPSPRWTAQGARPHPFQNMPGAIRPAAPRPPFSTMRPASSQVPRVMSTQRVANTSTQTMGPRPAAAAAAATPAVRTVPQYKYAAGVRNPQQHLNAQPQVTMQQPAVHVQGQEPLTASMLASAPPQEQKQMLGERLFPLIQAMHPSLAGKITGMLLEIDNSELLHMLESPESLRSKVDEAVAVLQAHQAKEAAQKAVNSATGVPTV
UniProt Q9EPU0: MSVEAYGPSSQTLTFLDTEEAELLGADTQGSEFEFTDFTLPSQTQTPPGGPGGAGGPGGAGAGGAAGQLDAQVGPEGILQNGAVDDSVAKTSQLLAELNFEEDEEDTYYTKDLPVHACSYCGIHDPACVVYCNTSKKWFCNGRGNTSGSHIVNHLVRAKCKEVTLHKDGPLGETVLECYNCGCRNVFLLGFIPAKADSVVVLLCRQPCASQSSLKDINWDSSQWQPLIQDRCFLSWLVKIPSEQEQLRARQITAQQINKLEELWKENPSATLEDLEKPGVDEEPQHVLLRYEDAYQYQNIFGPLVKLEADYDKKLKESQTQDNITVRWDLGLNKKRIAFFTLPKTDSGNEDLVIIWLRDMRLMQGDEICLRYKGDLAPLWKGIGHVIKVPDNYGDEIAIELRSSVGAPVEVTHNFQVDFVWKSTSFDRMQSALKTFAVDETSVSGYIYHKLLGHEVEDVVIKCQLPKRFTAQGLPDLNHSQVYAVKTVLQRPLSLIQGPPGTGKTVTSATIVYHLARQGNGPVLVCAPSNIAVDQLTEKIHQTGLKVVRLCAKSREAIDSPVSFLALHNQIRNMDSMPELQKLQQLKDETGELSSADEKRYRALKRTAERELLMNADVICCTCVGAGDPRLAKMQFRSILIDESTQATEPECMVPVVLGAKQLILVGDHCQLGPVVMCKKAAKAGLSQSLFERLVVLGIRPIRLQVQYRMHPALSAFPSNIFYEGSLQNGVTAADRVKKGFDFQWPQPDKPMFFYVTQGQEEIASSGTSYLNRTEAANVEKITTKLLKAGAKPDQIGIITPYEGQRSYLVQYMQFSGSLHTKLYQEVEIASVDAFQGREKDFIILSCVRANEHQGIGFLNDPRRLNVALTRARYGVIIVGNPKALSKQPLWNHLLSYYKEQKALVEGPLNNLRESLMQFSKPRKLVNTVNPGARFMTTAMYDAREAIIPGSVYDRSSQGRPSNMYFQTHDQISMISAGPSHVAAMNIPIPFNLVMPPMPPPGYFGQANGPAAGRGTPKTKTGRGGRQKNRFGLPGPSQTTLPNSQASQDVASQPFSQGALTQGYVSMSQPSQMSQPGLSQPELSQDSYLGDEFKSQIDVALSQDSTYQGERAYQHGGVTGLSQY

Biological target: T1, FLAG-tagged MEX3A (endogenous MEX3A protein with a 3X-FLAG peptide fused to its C-terminal region) (mouse (endogenous in neurosphere cultures of C57BL/6J knock-in mice)) (UniProt G3UYU0)
T1 sequence: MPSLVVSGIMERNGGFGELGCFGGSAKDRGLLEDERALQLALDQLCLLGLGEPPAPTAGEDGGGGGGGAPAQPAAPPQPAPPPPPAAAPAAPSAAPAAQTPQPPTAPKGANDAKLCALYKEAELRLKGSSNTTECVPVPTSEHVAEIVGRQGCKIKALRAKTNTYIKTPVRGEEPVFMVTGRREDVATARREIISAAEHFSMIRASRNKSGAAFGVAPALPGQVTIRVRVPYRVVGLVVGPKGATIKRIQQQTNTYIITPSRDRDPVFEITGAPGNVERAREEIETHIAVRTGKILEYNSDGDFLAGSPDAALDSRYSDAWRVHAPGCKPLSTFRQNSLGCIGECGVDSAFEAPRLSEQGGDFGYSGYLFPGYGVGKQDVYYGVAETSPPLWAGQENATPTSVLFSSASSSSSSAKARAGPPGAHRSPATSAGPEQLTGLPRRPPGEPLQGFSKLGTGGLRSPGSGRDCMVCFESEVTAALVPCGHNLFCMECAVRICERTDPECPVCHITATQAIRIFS
Assay: affinity purification with mass spectrometry; anti-FLAG antibody cross-linked to Protein G Dynabeads; lysates (RIPA buffer) of formaldehyde-crosslinked (0.5%, 5 min) Mex3a^FLAG/FLAG neurospheres, overnight at 4 °C; LC-MS/MS of eluted proteins; only proteins present in all FLAG-tagged replicates and not in wild-type controls counted

| Substance | binding |
| --- | --- |
| EIF4A2 (from UniProt P10630 1-407) | binds |
| ELAVL1 (from UniProt P70372 1-326) | binds |
| FUBP3 (from UniProt A2AJ72 1-569) | binds |
| PABPC1 (from UniProt P29341 1-636) | binds |
| UPF1 (from UniProt Q9EPU0 1-1124) | binds |

No constants are given. Whether binding was seen depends on the method and setting. Binding seen in cells or lysates may run through a third protein. Here binding means that the protein was enriched with, or labelled near, the bait; the list need not be complete. Tags and fused reporters may be left off the sequences shown.
